Measurements: US20250213523A1, “COMBINATION OF HDAC INHIBITORS AND STATINS FOR USE IN THE TREATMENT OF PANCREATIC CANCER” (ISTITUTO NAZIONALE TUMORI IRCCS - FONDAZIONE G. PASCALE, priority 2022, published 2025)

Assays:
Experiment in all cases: Cell proliferation assay (Sulforhodamine B), IC50
KPC ID95 = assay type: cell-based, C57/BL6 mice; settings: Mus musculus; KPC ID95, 96 hours of treatment; read-out: IC50 96 h mean ± SD
Description: (§1) FIG. 1. Pancreatic Cancer Cell lines features. A. Basal mRNA basal levels of EMT markers Vimentin and E-Cadherin in PDAC cell lines L3.6pl, BxPC3, COLO357, PANC28, PANC1, ASPC1 and MIAPACA2, in normal pancreatic cells HPDE cells, as well as in 2 established PDX-derived primary cells KPC ID11 and KPC ID95 were determined by qRT-PCR. […] Cells were grown for 48 h before preparation of cell lysates. Proteins were separated by SDS-PAGE and transferred to PVDF membranes using standard protocols. The membranes were probed with specific antibodies and Ponceau Red as total protein loading controls. Data represents representative results of at least three independent experiments.
(§2) Cell proliferation was measured in 96-well plates in cells untreated and treated with described drugs as single agent or in combination. […] Synergism, additivity, and antagonism were quantified after an evaluation of the Combination Index (CI), which was calculated by the Chou-Talalay equation with CalcuSyn software (Biosoft, Cambridge, UK-Chou T C. Cancer Res. 2010 Jan. 15; 70(2):440-6.), as described elsewhere (Terranova-Barberio M, J Exp Clin Cancer Res. 2017; 36(1):177); Bruzzese et al, J Cell Physiol 2011, 226(9):2378-2390). […] The DRI determined the magnitude of dose reduction allowed for each drug when given in combination, compared with the concentration of a single agent that is needed to achieve the same effect. […]

KPC ID11 = assay type: cell-based, C57/BL6 mice; settings: Mus musculus; KPC ID11, 96 hours of treatment; read-out: IC50 96 h mean ± SD
Description: as §1, §2

BxPC3 = assay type: cell-based; settings: Homo sapiens, BXPC-3; BxPC3, 96 hours of treatment; read-out: IC50 96 h mean ± SD
Description: (§3) Cell proliferation was measured in 96-well plates in cells untreated and treated with described drugs as single agent or in combination. Cell proliferation was measured using a spectrophotometric dye incorporation assay (Sulforhodamine B) an the inhibitory concentration of 50% of cells (IC50) was calculated for each drug, as previously described (Di Gennaro et al Br J Cancer 2010, 103(11):1680-1691). Drugs combination studies were based on concentration-effect curves generated as a plot of the fraction of unaffected (surviving) cells versus drug concentration after 96 h of treatment. Synergism, additivity, and antagonism were quantified after an evaluation of the Combination Index (CI), which was calculated by the Chou-Talalay equation with CalcuSyn software (Biosoft, Cambridge, UK-Chou T C. Cancer Res. 2010 Jan. 15; 70(2):440-6.), as described elsewhere (Terranova-Barberio M, J Exp Clin Cancer Res. 2017; 36(1):177); Bruzzese et al, J Cell Physiol 2011, 226(9):2378-2390). […] The DRI determined the magnitude of dose reduction allowed for each drug when given in combination, compared with the concentration of a single agent that is needed to achieve the same effect. […] The formed colonies were fixed with TCA (50%) and measured using a spectrophotometric dye incorporation assay (Sulforhodamine B or crystal violet). […] 3D microtissues were maintained in the incubator and photographed by Opera Phenix microscope (Perkin Elmer) air objective magnification 5× and/or scored by Cell Titer-Glo® 3D Cell Viability Assay (Promega) by using a Multimode Reader Cytation 5 (Biotek).
(§4) Inventors first evaluated by SRB colorimetric assay the antiproliferative effect of different statins (Simvastatin-SIM, Lovostatin-LOV and Atorvastatin-ATOR) and HDAC inhibitors (Panobinostat-PAN, Vorinostat-VOR, Valproic acid-VPA and Entinostat-MS-275) on a panel of PDAC cell lines with different genetic and phenotypic features (PANC28, PANC1, ASPC1, BxPC3, MIAPACA2, L3.6pl, KPC ID11 AND KPC ID95) (Table 1).

COLO357 = assay type: cell-based; settings: Homo sapiens; COLO357, 96 hours of treatment; read-out: IC50 96 h mean ± SD
Description: as §3, §4

MDA-PANC28 = assay type: cell-based; settings: Homo sapiens, MDA-Panc-28; MDA-PANC28, 96 hours of treatment; read-out: IC50 96 h mean ± SD
Description: as §3, §4

- IC50 (BxPC3): 1100 ± 300 nM
- IC50 (COLO357): 1000 ± 200 nM
- IC50 (MDA-PANC28): 1600 ± 500 nM
SMILES: O=C(CCCCCCC(=O)Nc1ccccc1)NO [VOR, Vorinostat]
- IC50 (KPC ID95): 1900 ± 150 nM
- IC50 (KPC ID11): 2500 ± 140 nM
